Here are results for one molecule from paper PMC4179492.

Sequences of proteins named here, by UniProt entry; tags and fusion partners are left off.
UniProt P07814: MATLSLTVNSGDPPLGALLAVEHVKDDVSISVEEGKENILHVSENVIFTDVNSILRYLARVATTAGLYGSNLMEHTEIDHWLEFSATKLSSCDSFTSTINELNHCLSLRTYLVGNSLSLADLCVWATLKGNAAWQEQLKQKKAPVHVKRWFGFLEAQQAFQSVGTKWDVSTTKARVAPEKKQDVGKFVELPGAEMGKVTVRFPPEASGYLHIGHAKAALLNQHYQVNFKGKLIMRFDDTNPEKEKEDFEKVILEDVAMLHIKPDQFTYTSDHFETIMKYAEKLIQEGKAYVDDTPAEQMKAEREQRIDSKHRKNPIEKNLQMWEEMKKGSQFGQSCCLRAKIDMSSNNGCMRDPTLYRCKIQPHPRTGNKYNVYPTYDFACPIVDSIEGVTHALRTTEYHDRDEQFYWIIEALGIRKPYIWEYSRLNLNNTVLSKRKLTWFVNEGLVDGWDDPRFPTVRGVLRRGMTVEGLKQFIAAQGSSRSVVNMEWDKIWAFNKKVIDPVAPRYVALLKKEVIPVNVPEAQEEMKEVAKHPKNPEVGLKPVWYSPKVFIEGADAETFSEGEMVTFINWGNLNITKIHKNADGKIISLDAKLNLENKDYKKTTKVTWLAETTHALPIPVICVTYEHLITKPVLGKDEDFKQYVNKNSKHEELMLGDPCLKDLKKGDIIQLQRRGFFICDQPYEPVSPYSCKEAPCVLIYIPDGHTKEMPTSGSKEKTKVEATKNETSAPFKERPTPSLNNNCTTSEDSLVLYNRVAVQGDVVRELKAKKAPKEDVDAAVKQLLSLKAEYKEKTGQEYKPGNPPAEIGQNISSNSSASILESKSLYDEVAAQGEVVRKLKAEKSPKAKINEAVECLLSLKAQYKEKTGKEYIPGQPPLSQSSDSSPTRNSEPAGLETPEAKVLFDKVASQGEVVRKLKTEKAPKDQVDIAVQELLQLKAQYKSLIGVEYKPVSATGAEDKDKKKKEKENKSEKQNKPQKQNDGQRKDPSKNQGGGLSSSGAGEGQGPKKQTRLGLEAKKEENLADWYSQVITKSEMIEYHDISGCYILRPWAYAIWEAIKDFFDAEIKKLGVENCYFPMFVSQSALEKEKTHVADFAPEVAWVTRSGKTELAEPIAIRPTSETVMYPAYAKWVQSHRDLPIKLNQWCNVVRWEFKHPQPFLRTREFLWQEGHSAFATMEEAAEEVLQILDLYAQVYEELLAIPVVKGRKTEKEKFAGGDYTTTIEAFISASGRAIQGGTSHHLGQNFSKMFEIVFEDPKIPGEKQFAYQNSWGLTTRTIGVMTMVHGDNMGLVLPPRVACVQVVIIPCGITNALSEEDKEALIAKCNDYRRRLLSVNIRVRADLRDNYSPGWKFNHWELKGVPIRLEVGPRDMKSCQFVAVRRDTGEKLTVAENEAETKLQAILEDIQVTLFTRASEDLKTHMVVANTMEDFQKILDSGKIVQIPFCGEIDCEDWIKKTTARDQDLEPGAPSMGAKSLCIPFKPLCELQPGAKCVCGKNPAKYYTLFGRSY

Results are given in words; binding and its absence hold for the method and conditions named. Binding seen in cells or lysates may run through a third protein. Some results given as binding are weak or reduced against the parent protein; the word gives no strength. Tags and fused reporters may be left off the sequences shown.

In the test the target is EPRS (glutamyl-prolyl tRNA synthetase) (human (endogenous in HeLa or HEK293T; the cell line is not stated for this experiment)) (UniProt P07814). In words: co-IP; immunoprecipitation with anti-EPRS and anti-Myc antibodies from cell protein extracts; data not shown.

B1: Myc–MRS-SD mutant (methionyl-tRNA synthetase S209D/S825D) (enzyme, UniProt P56192 1-900)
chain: MRLFVSDGVPGCLPVLAAAGRARGRAEVLISTVGPEDCVVPFLTRPKVPVLQLDSGNYLFSTSAICRYFFLLSGWEQDDLTNQWLEWEATELQPALSAALYYLVVQGKKGEDVLGSVRRALTHIDHSLSRQNCPFLAGETESLADIVLWGALYPLLQDPAYLPEELSALHSWFQTLSTQEPCQRAAETVLKQQGVLALRPYLQKQPQPDPAEGRAVTNEPEEEELATLSEEEIAMAVTAWEKGLESLPPLRPQQNPVLPVAGERNVLITSALPYVNNVPHLGNIIGCVLSADVFARYSRLRQWNTLYLCGTDEYGTATETKALEEGLTPQEICDKYHIIHADIYRWFNISFDIFGRTTTPQQTKITQDIFQQLLKRGFVLQDTVEQLRCEHCARFLADRFVEGVCPFCGYEEARGDQCDKCGKLINAVELKKPQCKVCRSCPVVQSSQHLFLDLPKLEKRLEEWLGRTLPGSDWTPNAQFITRSWLRDGLKPRCITRDLKWGTPVPLEGFEDKVFYVWFDATIGYLSITANYTDQWERWWKNPEQVDLYQFMAKDNVPFHSLVFPCSALGAEDNYTLVSHLIATEYLNYEDGKFSKSRGVGVFGDMAQDTGIPADIWRFYLLYIRPEGQDSAFSWTDLLLKNNSELLNNLGNFINRAGMFVSKFFGGYVPEMVLTPDDQRLLAHVTLELQHYHQLLEKVRIRDALRSILTISRHGNQYIQVNEPWKRIKGSEADRQRAGTVTGLAVNIAALLSVMLQPYMPTVSATIQAQLQLPPPACSILLTNFLCTLPAGHQIGTVSPLFQKLENDQIESLRQRFGGGQAKTDPKPAVVETVTTAKPQQIQALMDEVTKQGNIVRELKAQKADKNEVAAEVAKLLDLKKQLAVAEGKPPEAPKGKKKK
As to B1, the binding result was “binds”.
